PubChem BioAssay AID1259425 – University of Nebraska Medical Center – 2018
This is one part, drawn at random, of about 14,000 reagents tested. Not given: the time to read-out.

Screen: 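Seek colon cancer weak points whose silencing resembles KSR1 loss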 (primary screen)
Cells: HCT116 human colon cancer cells
Reagents: siRNA pool against human genes, 50 nM siRNA
Read-out: 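After 50 nM siRNA pool, branched-DNA assay measures six marker transcripts per well, minus blank, normalised to the geometric mean of two housekeeping transcripts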
Scale: BNIP3L mRNA: higher = more BNIP3L transcript after knockdown; NDRG1 mRNA: higher = more NDRG1 transcript after knockdown; BNIP3 mRNA: higher = more BNIP3 transcript after knockdown; ALDOC mRNA: higher = more ALDOC transcript after knockdown; ACSL5 mRNA: higher = more ACSL5 transcript after knockdown

Target gene | BNIP3L mRNA, set 1 | NDRG1 mRNA, set 1 | BNIP3 mRNA, set 1 | ALDOC mRNA, set 1 | ACSL5 mRNA, set 1
EFTUD2 | 0.13 | 0.368 | 0.202 | 0.0199 | 0.127
SURF2 | 0.208 | 0.7 | 0.331 | 0.0238 | 0.192
ACVRL1 | 0.204 | 0.319 | 0.367 | 0.0239 | 0.435
ZFP36 | 0.0838 | 0.186 | 0.349 | 0.0295 | 0.204
LIMD1 | 0.0497 | 0.065 | 0.217 | 0.000875 | 0.0881
HPX | 0.0427 | 0.137 | 0.356 | 0.00889 | 0.104
ARHGEF17 | 0.108 | 0.273 | 0.225 | 0.00922 | 0.435
CD36 | 0.0287 | 0.0972 | 0.218 | 0.0111 | 0.146
LHX5 | 0.0618 | 0.113 | 0.313 | 0.00536 | 0.178
FSTL1 | 0.154 | 0.22 | 0.265 | 0.0168 | 0.21
CPSF4 | 0.0981 | 0.233 | 0.319 | 0.0203 | 0.133
SLC7A9 | 0.053 | 0.252 | 0.405 | 0.00633 | 0.0638
EXO5 | 0.0436 | 0.223 | 0.281 | 0.0416 | 0.207
RALGAPA2 | 0.166 | 0.173 | 0.349 | 0.0342 | 0.332
RECQL | 0.0809 | 0.166 | 0.21 | 0.00694 | 0.175
GPR6 | 0.501 | 0.401 | 1.01 | 0.107 | 0.282
ART1 | 0.0815 | 0.108 | 0.449 | 0.0105 | 0.144
AKAP10 | 0.0627 | 0.176 | 0.307 | 0.0268 | 0.182
LRCH4 | 0.128 | 0.285 | 0.484 | 0.0324 | 0.314
TRPV1 | 0.0972 | 0.157 | 0.172 | 0.0131 | 0.0677
RABAC1 | 0.237 | 0.0589 | 0.308 | 0.0277 | 0.169
GSPT2 | 0.15 | 0.327 | 0.385 | 0.023 | 0.36
TMEM115 | 0.184 | 0.524 | 0.315 | 0.019 | 0.0816
UGDH | 0.139 | 0.147 | 0.257 | 0.0185 | 0.136
SOX18 | 0.126 | 0.16 | 0.234 | 0.024 | 0.248
TMOD2 | 0.0941 | 0.119 | 0.29 | 0.0202 | 0.159
PRG3 | 0.0822 | 0.0987 | 0.292 | 0.0125 | 0.103
NAPG | 0.0278 | 0.342 | 0.254 | 0.0278 | 0.19
AD7C-NTP (retired record) | 0.072 | 0.926 | 0.311 | 0.028 | 0.215
TAF2 | 0.0394 | 0.0778 | 0.294 | 0.0146 | 0.107
CHIA | 0.239 | 0.274 | 0.422 | 0.0319 | 0.326
FAM110D | 0.162 | 0.172 | 0.305 | 0.0921 | 0.132
IPO9 | 0.164 | 0.372 | 0.379 | 0.0253 | 0.191
DNAJC2 | 0.0719 | 0.0896 | 0.3 | 0.0232 | 0.0733

Entries above whose target name begins with E or e:
Target gene | BNIP3L mRNA, set 1 | NDRG1 mRNA, set 1 | BNIP3 mRNA, set 1 | ALDOC mRNA, set 1 | ACSL5 mRNA, set 1
EFTUD2 | 0.13 | 0.368 | 0.202 | 0.0199 | 0.127
EXO5 | 0.0436 | 0.223 | 0.281 | 0.0416 | 0.207
